pIC50: −log10 of the molar value. Like-named read-outs stand apart in the source and are kept apart here.
Experiments:
B. ovis [1] = test: microbe, parasite or virus in culture; type: cell-based; conditions: Brucella ovis, read-out: Axenic IC50
B. ovis [2] = test: microbe, parasite or virus in culture; type: cell-based; conditions: Brucella ovis, THP-1, read-out: Intracellular IC50

With `O=C1CCc2ccc(OCCCCN3CCN(c4cccc(Cl)c4Cl)CC3)cc2N1` [Aripiprazole] as the compound, how does the pIC50 (B. ovis [1]) read?
Its pIC50 is < 4.30.

What about the pIC50 (B. ovis [2]) of the same compound?
Its pIC50 is 5.40.

Reference: doi:10.1101/2025.05.10.653276 (bioRxiv, 2025)
